# Results are given in words; binding and its absence hold for the method and conditions named. In cells and extracts the contact can be indirect. These calls come from enrichment with a bait or labelling near it, and not all partners need be listed.
# Protein sequences, listed by entry. Tags and fused reporters are not part of them.
# UniProt Q8MQV3: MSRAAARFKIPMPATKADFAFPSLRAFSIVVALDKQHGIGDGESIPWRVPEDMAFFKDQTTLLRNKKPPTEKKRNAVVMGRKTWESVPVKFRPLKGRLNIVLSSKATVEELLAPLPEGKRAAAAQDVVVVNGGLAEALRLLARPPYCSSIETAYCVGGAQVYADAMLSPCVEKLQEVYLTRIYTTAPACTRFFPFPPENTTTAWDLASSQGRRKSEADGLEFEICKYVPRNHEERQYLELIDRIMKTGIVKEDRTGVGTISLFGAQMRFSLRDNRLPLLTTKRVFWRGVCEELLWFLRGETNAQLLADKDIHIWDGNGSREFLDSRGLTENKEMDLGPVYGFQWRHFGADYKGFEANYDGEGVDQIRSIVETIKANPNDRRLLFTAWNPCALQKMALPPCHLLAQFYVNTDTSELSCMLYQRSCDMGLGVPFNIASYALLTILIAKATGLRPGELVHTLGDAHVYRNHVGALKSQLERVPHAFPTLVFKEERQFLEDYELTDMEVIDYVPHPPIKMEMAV
# Tests used:
# [1] = biological target: HA-tagged L. infantum DRBD2 (L. infantum) (UniProt E9AHW1); assay: affinity purification with mass spectrometry; anti-HA magnetic beads, HA-tagged RBP23 or DRBD2 from L. infantum cytoplasmic extracts (nitrogen cavitation), 1 h at 4 C, washed with PBS, not RNase treated; control: extracts of non-transfected cells; two independent experiments
# [2] = biological target: HA-tagged L. infantum RBP23 (L. infantum) (UniProt A4HXC9); assay: as above
Molecule,binding [1],binding [2]
gRNA binding complex subunit 6 (from UniProt A4HTQ0),binds,–
Skp1 (S-phase kinase-associated protein 1)-like (from UniProt A4HSG7),binds,binds
PAS-domain containing phosphoglycerate kinase (from UniProt A4I628) (enzyme),binds,–
CCR4-NOT complex subunit 10 (from UniProt A4IE22),–,binds
CCCH-Zinc finger 39 (from UniProt A4HY52),binds,–
Kinetoplast polyadenylation factor 1 (from UniProt A4HXM7),binds,–
Guide RNA associated protein 1 (from UniProt A4I9B3),binds,–
Dynamin-1-like protein (from UniProt A4I4S9),–,binds
Mitochondrial-associated protein MRB1AP (from UniProt A4HV02),–,binds
Monooxygenase (from UniProt A4HT15) (enzyme),binds,–
"LINF_260021000, RING-zinc finger protein (from UniProt A4I293)",–,binds
mRNA cap guanine-N7 methyltransferase (from UniProt A4HUW9) (enzyme),binds,–
Eukaryotic translation initiation factor 4E4 (from UniProt A4I573),–,binds
"LINF_080013100, BAR domain protein (from UniProt A4HTM7)",–,binds
CCCH-Zinc finger 40 (from UniProt A4HY39),binds,–
Serine-threonine kinase receptor-associated protein (from UniProt A4I2S5),–,binds
RNA-binding protein 12 (from UniProt A4HXT4),binds,–
tRNA (Guanine-1)-methyltransferase LINF_300036300 (from UniProt A4I5Y8) (enzyme),–,binds
gRNA binding complex subunit 5 (from UniProt A4I8Z1),binds,–

Molecule,binding [1],binding [2]
Eukaryotic translation initiation factor 3 G (from UniProt A4IA46),–,binds
Dihydrofolate reductase-thymidylate synthase (from UniProt Q8MQV3 1-520) (enzyme),–,binds
Three RRMs containing protein 1 (from UniProt A4I2Y0),binds,–
RNA editing mediator complex protein 5 (from UniProt A4I6F8),binds,–
Mitochondrial edited mRNA stability factor 1 (from UniProt A4I866),binds,–
CCR4-associated factor (from UniProt A4I022),–,binds
Three RRMs containing protein 2 (from UniProt A4I5E2),binds,binds
Mitochondrial RNA binding protein 2 (from UniProt A4HU34),binds,–
Pumilio protein 6 (from UniProt A4I8Y0 1-837),binds,–
CCCH-Zinc finger 31 (from UniProt A4ICR0),binds,–
"LINF_210020800, PPR domain protein (from UniProt A4HZC4)",–,binds
Inosine-5'-monophosphate dehydrogenase (from UniProt A4HYI5) (enzyme),binds,–
CCR4-NOT complex subunit 11 (from UniProt A4I038),–,binds
Poly(A) Specific Ribonuclease Subunit PAN3 (from UniProt A4I7N9),binds,–
Eukaryotic translation initiation factor 4E1 (from UniProt A4I2V4),–,binds
PAB1-binding protein (from UniProt A4HUM3),–,binds
EIF4E1-interacting protein 2 (from UniProt A4I8Q2),–,binds
Polyadenylation mediator complex 3 (from UniProt A4HZ59),binds,–
RNA editing mediator complex protein 1 (from UniProt A4IDQ5),binds,–

Molecule,binding [1],binding [2]
Guide RNA associated protein 2 (from UniProt A4HZU2),binds,–
RNA-binding protein 43 (from UniProt A4I171),binds,–
Mitochondrial edited mRNA stability factor 2 (from UniProt A4I377),binds,–
Mitochondrial RNA binding complex 1 subunit KRBP72/MRB1590 (from UniProt A4I1K0),binds,–
Purine-Responsive Element Binding Protein 1 (from UniProt A4I6R7),–,binds
RGG-containing protein 2 (from UniProt A4I8P4),binds,–
"Poly A polymerase, regulatory subunit (from UniProt E9AH23)",–,binds
tRNA (Uracil-5-)-methyltransferase LINF_200021600 (from UniProt A4HZ00) (enzyme),binds,–
ATP-dependent DEAD/H RNA helicase LINF_220021200 (from UniProt A4I009) (enzyme),binds,–
Mitochondrial RNA binding complex 1 subunit RESC11B/MRB4150 (from UniProt A4I6F7),binds,–
ATP-dependent RNA helicase HEL67 (from UniProt A4I7K4) (enzyme),binds,–
Mitochondrial RNA binding protein 1 (from UniProt A4I2R2),binds,–
"LINF_210009700, RNA-binding protein with NTF2 domain (from UniProt A4HZ42)",binds,–
Mitochondrial edited mRNA stability factor 3 (from UniProt E9AHZ5),binds,–
RGG-containing protein 1 (from UniProt A4I5A9),binds,–
Polyadenylation mediator complex 1 (from UniProt A4HYT7),binds,–
"Poly(A)-binding protein 1 (protein, UniProt A4IC57 1-560) MAAAVQEAAAPVAHQPQMDKPMQIASIYVGDLDAAINEPQLVELFKPFGTILNVRVCRDIITQRSLGYGYVNFDNHDSAEKAIESMNFKRVGDKCVRLMWQQRDPALRYSGNGNVFVKNLEKDVDSKSLHDIFTKFGSILSCKVMQDEEGKSRGYGFVHFKDETSAKDAIVKMNGAADHASEDKKALYVANFIRRNARLAALVANFTNVYIKQVLPTVNKEVIEKFFAKFGGITSAAACKDKSGRVFAFCNFEKHDDAVKAVEAMHDHHIDGITAPGEKLYVQRAQPRSERLIALRQKYMQHQSLGNNLYVRNFDPEFTGADLLELFKEYGEVKSCRVMVSESGASRGFGFVSFSNADEANAALREMNGRMLNGKPLIVNIAQRRDQRYTMLRLQFQQRLQMMMRQMHQPMPFVGGQGRPMRGRGGRQQLGGRAQGHPMPMPSPQQPQAPAQPQGFATPSAVGFVQATPKHSPGDVPETPPLPPITPQELESMSPQEQRAALGDRLFLKVYEIAPELAPKITGMFLEMKPKEAYELLNDQKRLEERVTEALCVLKAHQTA",–,binds
"Gamma-glutamylcysteine synthetase (enzyme, UniProt A4HY37 1-687) MGLLTTGGAPIQWGTDANRKAIPHVREHGIQQFLNVFKNKKDLHGMPFLWGEELEHQLIQIHDNTVTLSTESAMVMNKLRARPDNCAVWNPEYGSFMIESTPDHPYSLSVESLDSVQDNIERRYDMLNKEAPPGVVGTTFVTFPLMGQGNFVHCSDKSSPYSQSLFVPDACINQTHPRFANLTANIRLRRGQKVCVLVPLYMDSRTMQDTVDPQLNIDLTPHNKDICYSMRENGRNMTDELYAETDASAALLVPSSSLDPREDYPVTETLKQLFTPATLYYYAQYFTGQRREHMQERYNACNCPATLVSHPCIYMDCMAFGMGNSALQVTMQLDNIHEARHVYDQLAILCPAFLALSSATPFQKGLLCDTDVRWLTIAGAVDDRRVEEVPRILKSRYDSISVFISDRTENLEEFNDSQIAINRSYCELLKDSGVDVRLANHIAHLFIRDPLVIYDKMIDIDDTTHTEHFDNIQSTNWQTVRFKPPPIGNDIGWRVEFRVMDIQPTPFENAAFAVFIPLLTKAIITYKPCFYTKISIVDENMGRAHRINPCGEQYIMRKDIFADKCTASDEETARMSIDEIFNGKEGGFYGLIPLVCRYLDDEGKRSPLVNSYLKFLSMRASGRIPTPAQYMRKFVTTHPDYKHDSRLTDSIARDLVQRMHGLAANQIHDDDYLPMSFFTADAVESTK",–,binds
"ATP-dependent phosphofructokinase (enzyme, UniProt A4I4W5 1-486) METRHHLNTKMVPSYQAPLSKVTAADLTVERLPGCKYMNPSKKHILREEYRDKVEHIMYDPRPQEDLDAEYPVSCNKLVCELAAARKHLHFNPSETSIGIVTCGGICPGLNDVIRSITLTGIISYRVKRVVGFRYGYWGLSKEGSKTAIELSRSDVRQIHRFGGTILGSSRGPQNPKEMVDTLVRMKINILFTVGGDGTQRGALTIYEEAKRRGENIAVFGVPKTIDNDLAFSHRTFGFQTAVEQAVNAVRAAYAEAVSLNYGVGIVKLMGRESGFIAAQTTVASAQANICLIPENPLPKETVMRLIERRLQQSRNCVIVVAEGFGQDWETGTGGHDASGNKKLVDIGFILKKEVESWLRANKEKFPQGTVKYIDPSYMIRACPPSSNDALFCTNLATLAVHEAMAGATGCIISMRYNNYILVPIKAATSVRRVVSLRGALWRQVREITVGLSDDVQQWNEQDLRRHLESLNVERERIIARLASKV",binds,–

# Source: publication PMC8575317
